Like-named read-outs stand apart in the source and are kept apart here. No constants are given. Whether binding was seen depends on the method and setting. Binding seen in cells or lysates may run through a third protein. Some results given as binding are weak or reduced against the parent protein; the word gives no strength.
Assays:
[1] = biological target: CD47 (human (endogenous in HK-2)) (UniProt Q08722); assay: co-IP; anti-CD47 or anti-γ-catenin on Protein G Sepharose beads, HK-2 cell lysate (IP buffer with protease inhibitors), 4°C 12 h; gel electrophoresis and blot; cells with or without OX-LDL
[2] = biological target: CD47 (human (endogenous in HK-2)) (UniProt Q08722); assay: as above; remark: listed apart in the source

By UniProt entry, the sequences of proteins in these tests, tags left out. Residues count along the entry.
UniProt Q08722, residues 19-323: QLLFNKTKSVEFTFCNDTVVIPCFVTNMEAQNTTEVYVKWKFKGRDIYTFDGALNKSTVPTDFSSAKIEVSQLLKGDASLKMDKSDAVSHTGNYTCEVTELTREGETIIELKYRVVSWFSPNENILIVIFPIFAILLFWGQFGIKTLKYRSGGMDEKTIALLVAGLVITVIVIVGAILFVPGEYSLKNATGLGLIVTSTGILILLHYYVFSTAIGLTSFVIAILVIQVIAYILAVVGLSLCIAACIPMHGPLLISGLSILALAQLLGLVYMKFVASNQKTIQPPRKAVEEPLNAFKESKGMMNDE
UniProt P07996, residues 19-1170: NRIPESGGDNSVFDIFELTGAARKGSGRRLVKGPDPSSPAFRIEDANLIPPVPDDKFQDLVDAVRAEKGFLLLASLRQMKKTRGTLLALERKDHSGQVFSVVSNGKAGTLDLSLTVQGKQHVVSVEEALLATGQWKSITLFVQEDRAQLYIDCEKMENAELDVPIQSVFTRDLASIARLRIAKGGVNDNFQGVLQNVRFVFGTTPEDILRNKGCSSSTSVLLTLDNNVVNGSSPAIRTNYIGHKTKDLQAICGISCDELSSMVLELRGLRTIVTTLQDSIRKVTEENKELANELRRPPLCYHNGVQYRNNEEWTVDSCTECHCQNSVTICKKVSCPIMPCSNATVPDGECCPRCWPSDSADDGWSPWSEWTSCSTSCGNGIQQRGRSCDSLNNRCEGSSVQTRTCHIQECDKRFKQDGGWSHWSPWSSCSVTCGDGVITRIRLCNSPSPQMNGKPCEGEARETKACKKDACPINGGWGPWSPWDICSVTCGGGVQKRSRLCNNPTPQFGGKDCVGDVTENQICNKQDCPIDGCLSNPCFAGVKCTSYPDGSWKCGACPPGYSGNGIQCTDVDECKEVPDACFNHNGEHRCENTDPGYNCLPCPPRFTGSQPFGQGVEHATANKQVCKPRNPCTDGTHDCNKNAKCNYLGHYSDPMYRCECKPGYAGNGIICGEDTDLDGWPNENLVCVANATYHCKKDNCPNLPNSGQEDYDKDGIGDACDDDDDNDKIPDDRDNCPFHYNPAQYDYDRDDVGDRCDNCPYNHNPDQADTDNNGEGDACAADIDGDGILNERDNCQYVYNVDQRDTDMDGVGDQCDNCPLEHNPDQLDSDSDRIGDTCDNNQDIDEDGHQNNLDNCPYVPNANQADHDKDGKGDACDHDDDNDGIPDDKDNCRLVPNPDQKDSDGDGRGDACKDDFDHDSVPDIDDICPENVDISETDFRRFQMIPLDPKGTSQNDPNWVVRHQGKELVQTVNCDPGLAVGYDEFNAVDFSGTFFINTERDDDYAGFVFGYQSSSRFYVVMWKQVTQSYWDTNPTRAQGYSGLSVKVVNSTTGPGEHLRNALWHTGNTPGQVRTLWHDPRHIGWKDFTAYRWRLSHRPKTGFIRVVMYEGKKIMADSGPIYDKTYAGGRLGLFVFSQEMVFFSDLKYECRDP

binding [1]	binding [2]	Molecule
binds		thrombospondin-1 (from UniProt P07996 19-1170) (ligand)
	binds	γ-catenin (protein, UniProt P14923 1-745) MEVMNLMEQPIKVTEWQQTYTYDSGIHSGANTCVPSVSSKGIMEEDEACGRQYTLKKTTTYTQGVPPSQGDLEYQMSTTARAKRVREAMCPGVSGEDSSLLLATQVEGQATNLQRLAEPSQLLKSAIVHLINYQDDAELATRALPELTKLLNDEDPVVVTKAAMIVNQLSKKEASRRALMGSPQLVAAVVRTMQNTSDLDTARCTTSILHNLSHHREGLLAIFKSGGIPALVRMLSSPVESVLFYAITTLHNLLLYQEGAKMAVRLADGLQKMVPLLNKNNPKFLAITTDCLQLLAYGNQESKLIILANGGPQALVQIMRNYSYEKLLWTTSRVLKVLSVCPSNKPAIVEAGGMQALGKHLTSNSPRLVQNCLWTLRNLSDVATKQEGLESVLKILVNQLSVDDVNVLTCATGTLSNLTCNNSKNKTLVTQNSGVEALIHAILRAGDKDDITEPAVCALRHLTSRHPEAEMAQNSVRLNYGIPAIVKLLNQPNQWPLVKATIGLIRNLALCPANHAPLQEAAVIPRLVQLLVKAHQDAQRHVAAGTQQPYTDGVRMEEIVEGCTGALHILARDPMNRMEIFRLNTIPLFVQLLYSSVENIQRVAAGVLCELAQDKEAADAIDAEGASAPLMELLHSRNEGTATYAAAVLFRISEDKNPDYRKRVSVELTNSLFKHDPAAWEAAQSMIPINEPYGDDMDATYRPMYSSDVPLDPLEMHMDMDGDYPIDTYSDGLRPPYPTADHMLA

From publication PMC7930485
